# Values joined by “and” are separate entries in the source; they are usually repeats but may differ in a detail not shown here. Equal values may be shown once. The list shows a part of the results. These are further read-outs of the screen, such as a control signal, another cell line or another target. No call is given for them. The list favours compounds with an active or inconclusive main result. The note in brackets gives the kind of curve behind each potency; many fits are weak.
# Experiment: qHTS Assay for Lipid Storage Modulators in Drosophila S3 Cells;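 as to cell number change: cells counted by Cell Tracker Red CMTPX staining in the red channel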
# Conditions: BODIPY lipid droplet fluorescence, 18-24 h; for cell number change: measured here: cell count max response, cells fed with added oleic acid
# Outline: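 Laser-scanning cytometry quantifies lipid droplet accumulation (500–530 nm total intensity; droplet/cell object ratio) in oleic acid-fed (400 uM added) Drosophila S3 cells treated with a concentration series. 20 uM Triacsin C defined 100% inhibition.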
# [1] = measured here: lipid fluorescence (Fed channel) AC50, cells fed with added oleic acid
# [2] = measured here: cell number channel AC50, cells fed with added oleic acid
SMILES,cell number change,AC50 [1],AC50 [2]
Cc1ccc(CNC(=O)CCCC(=O)Nc2cc(C)on2)cc1,-18.7%,"6.51 µM [falling, partial curve]",
CN(C(=S)NC(=O)/C=C/c1ccc(F)cc1)C1CCCCC1,4%,,
COc1ccc(CCNc2ncnc3sccc23)cc1OC,-26.7%,"7.31 µM [falling, partial curve]",
O=C(NCc1cccnc1)C(=O)Nc1ccc2c(c1)OCO2,32.7%,"0.0461 µM [rising, full curve]","0.0184 µM [rising, full curve, poor fit]"
COc1ccccc1-c1nnc(NC(=O)Cc2ccccc2)o1,15.8%,,
CC(=O)Oc1ccc2c(C)cc(=O)oc2c1C(=O)c1ccccc1,110%,"6.51 µM [falling, single point]","6.51 µM [falling, single point]"
Oc1c(Br)cc(Br)cc1C=Nc1ccc2c(c1)OCO2,5.97%,"29.1 µM [rising, single point]",
c1ccc(-c2ccc(OCCOCCn3cncn3)cc2)cc1,,"1.16 µM [rising, full curve]","0.82 µM [rising, full curve]"
CCCCC1=NN2CCS(=O)(=O)N=C2S1,19.2%,,
COc1ccc(/C=C2\N=C(c3ccc(C)cc3)OC2=O)cc1,28.1%,"29.1 µM [rising, single point]",
CCN1C(=NCCc2c[nH]c3ccccc23)N[C@@H](c2ccccc2)[C@H](C(=O)OC)[C@H]1C,5.99% and 9.7%,"0.00461 µM [rising, full curve, poor fit]",
COc1ccc(C2CC(c3ccccc3)=NN2C(=O)c2ccc(Cl)c([N+](=O)[O-])c2)cc1 (centres undefined),35.3%,"18.4 µM [rising, single point]","23.1 µM [rising, single point]"
Cc1ccc(C(CC(=O)NCCCN(C)C)c2ccc(OC(C)C)cc2)cc1 (centres undefined),11.8%,"2.06 µM [rising, partial curve]",
Cc1noc(C)c1S(=O)(=O)N1CCC(C(=O)NC2CCN(Cc3ccccc3)CC2)CC1,13.4%,,
O=C(CSCc1cccc(Br)c1)NC1CC1,121%,,"29.1 µM [rising, partial curve, poor fit]"
COc1ccc(C(=O)c2sc(Nc3ccccc3)nc2N)cc1,-34.1%,"20.6 µM [falling, single point]","23.1 µM [falling, single point]"
Cc1ccc(CNC(=O)C2CC(=O)N(C3CCCC3)C2)cc1 (centres undefined),-45.5%,"2.59 µM [falling, full curve]","0.00517 µM [falling, full curve, poor fit]"
COc1ccccc1C(=O)Nc1ccc(Br)c2cccnc12,,"20.6 µM [falling, partial curve]",
COc1ccc(CN2CCOCC2)cc1OC,-33.9%,,"4.61 µM [falling, full curve, poor fit]"
CC(=O)c1cccc(NC(=O)c2cc(-n3cnnc3)ccc2Cl)c1,2.05%,"6.51 µM [falling, partial curve, poor fit]",

SMILES,cell number change,AC50 [1],AC50 [2]
O=C(Cc1ccccc1)NC(=S)Nc1ccc(N2CCCCC2)cc1,-8.22%,"2.06 µM [falling, partial curve]",
O=C(CN1C(=O)C2C3CCC(C3)C2C1=O)OCC(=O)c1ccc(Br)cc1 (centres undefined),4.62%,"11.6 µM [rising, single point]",
CC(=O)Nc1ccc(NC(=O)C2CCCN2C(=O)Nc2ccc(F)c([N+](=O)[O-])c2)cc1 (centres undefined),-46.1%,"5.17 µM [falling, full curve]","4.61 µM [falling, full curve]"
CCNS(=O)(=O)c1c(C)cc(N2CCCC2=O)cc1C,,"0.231 µM [falling, full curve]",
CCOC(=O)C1(Cc2ccccc2)CCN(Cc2ccc(C)s2)CC1,-23.4%,"16.4 µM [falling, single point]",
COc1cc(C(=O)N2c3ccccc3CCC2C)cc(OC)c1OC (centres undefined),-2.19%,"6.51 µM [rising, single point]",
NCCCC[C@H]1NC(=O)[C@H](CCC(=O)O)NC(=O)c2cc([N+](=O)[O-])cc(I)c2OCC[C@@H](C(N)=O)NC1=O,44%,"0.00461 µM [falling, full curve, poor fit]","29.1 µM [rising, single point]"
CC1(C)CC(=O)C2=C(C1)OC(N)=C([N+](=O)[O-])C2c1cccs1 (centres undefined),-33.5%,"0.00461 µM [falling, full curve, poor fit]","32.6 µM [falling, partial curve, poor fit]"
COC(=O)C1=C(CSc2nc3ccccc3s2)NC(=O)NC1c1ccc(F)cc1 (centres undefined),8.12%,"0.461 µM [rising, single point]",
O=C(O)c1ccccc1CSC1=NCCS1,-14.3%,"29.1 µM [falling, single point]",
O=C(NCc1ccc(F)cc1)C(=O)c1cn(CC(=O)N2CCCC2)c2ccccc12,-1.89%,"16.4 µM [falling, partial curve, poor fit]",
Cc1cc(Cl)c(OCCCN2CCCCC2)c(Br)c1,16.7%,,"2.31 µM [falling, partial curve, poor fit]"
CCCC(=O)Nc1c(-c2cccc(C)c2)c(=O)c2ccccc2n1C,-18.4%,"7.31 µM [falling, partial curve]",
O=C1C(Cl)=C(NCC2CCCO2)C(=O)N1c1cccc(Cl)c1Cl (centres undefined),-31.2%,,
COc1ccc(S(=O)(=O)N2CCCCC2)cc1NC(=O)Cc1cccs1,32.3%,,"0.731 µM [rising, full curve]"
CCCCn1c(N)c(N(CCC(C)C)C(=O)C2CCN(C(=O)c3ccccc3C)CC2)c(=O)[nH]c1=O,-61%,,"29.1 µM [falling, single point]"
Cc1ccc(CN2CCc3c(OCC(=O)Nc4cccc(C)c4C)cccc3C2=O)cc1,-16.3%,"2.31 µM [falling, partial curve]",
COC(=O)Cn1c(=NC(=O)c2ccc(S(=O)(=O)N3CCOCC3)cc2)sc2cc(S(N)(=O)=O)ccc21,-7.76%,"29.1 µM [falling, single point]",
CN1C(=O)/C(=C/c2ccccc2OCc2ccc(F)cc2)N(C)C1=S,11.8%,"8.2 µM [rising, partial curve, poor fit]","0.00731 µM [rising, full curve, poor fit]"
Cc1c(C(=O)O)oc2c1/C(=N\O)CC(C)(C)C2,49.8%,"0.366 µM [falling, partial curve, poor fit]","3.66 µM [rising, full curve]"

# Quoted at random: two compounds from above
SMILES,cell number change,AC50 [1],AC50 [2]
NCCCC[C@H]1NC(=O)[C@H](CCC(=O)O)NC(=O)c2cc([N+](=O)[O-])cc(I)c2OCC[C@@H](C(N)=O)NC1=O,44%,"0.00461 µM [falling, full curve, poor fit]","29.1 µM [rising, single point]"
CCCCC1=NN2CCS(=O)(=O)N=C2S1,19.2%,,

# (further entries)

SMILES,cell number change,AC50 [1],AC50 [2]
Cn1cc(/C=C(\C#N)C(=O)Nc2ccccc2O)c2ccccc21,-12.3%,"29.1 µM [falling, single point]",
CN(C)S(=O)(=O)NCCNC(=O)c1cc(OCC(F)(F)F)ccc1OCC(F)(F)F,27.4%,"11.6 µM [rising, partial curve]",
COc1nc(OC)nc(N2CCC(C(=O)NCc3ccco3)CC2)n1,,,"2.59 µM [rising, single point]"
Cc1cccc(-n2ncc3c2CCCC3NC(=O)CCCN2CCCCC2=O)c1C (centres undefined),-33.8%,,"23.1 µM [falling, single point]"
CCc1nnc(NC(=O)c2ccncc2)s1,3.48%,,
O=C(Nc1ccc(F)cc1)c1cccc2c1C(=O)N(CC1CCCO1)C2 (centres undefined),0.865%,"0.517 µM [rising, single point]",
O=C(CSc1nnc(-c2ccco2)o1)c1ccc[nH]1,32.7%,,"16.4 µM [rising, single point]"
COc1ccc(NC(=O)CSc2nc3[nH]c(=O)cc(O)c3s2)cc1OC,14.9%,,"0.291 µM [rising, full curve, poor fit]"
COc1cc(C(=O)Nc2nc(-c3ccc(C)cc3)cs2)ccc1OCC(=O)N1CCOCC1,2.4%,,"4.61 µM [falling, single point]"
COc1cccc2sc(N(C)c3ccccc3)nc12,-8.5%,"0.146 µM [falling, full curve]",
CCc1cc(-c2[nH]ncc2-c2ccc(OC)cc2)c(O)cc1O,-41.7%,,"29.1 µM [falling, single point]"
O=C(Nc1ccccc1Cl)N1CCSc2ccccc21,-40.1%,"8.2 µM [falling, partial curve]","3.66 µM [falling, full curve]"
N#Cc1nc(COc2ccc(Cl)cc2)oc1NCc1ccc2c(c1)OCO2,194%,"20.6 µM [rising, partial curve]","5.8 µM [rising, partial curve]"
c1ccc2c(c1)ccc1nnc(SCc3ccc4c(c3)OCCO4)n12,-36.2%,"29.1 µM [falling, single point]","29.1 µM [falling, single point]"
Cc1ccsc1-c1n[nH]c(=S)n1C1CCCCC1,-10.1%,"25.9 µM [falling, single point]",
COc1ccc(N=N/C(=C\O)C(=O)c2cccs2)cc1,-23.9%,"0.82 µM [falling, full curve, poor fit]",
COc1ccc(S(=O)(=O)NC(C)C(=O)Nc2cccc(C(C)=O)c2)cc1 (centres undefined),135%,,"29.1 µM [rising, single point]"
O=C(N/N=C/c1cccc(O)c1)c1ccc(-n2cnnn2)cc1,7.5%,,
